The values that follow come from article PMC3713036.

Results are given in words; binding and its absence hold for the method and conditions named. In cells and extracts the contact can be indirect. Some entries that bind do so weakly or less than the wild type.

In assay [1] the target is APE1 (endogenous) (human (endogenous in HCT116)) (UniProt P27695). Description: co-IP; IP with mouse monoclonal anti-APE1 antibody and protein A/G Plus agarose beads from pre-cleared extracts of HCT116 p53-null cells, control or with ectopic p53 expression; Western for AP4.
The target in assay [2] is FLAG-tagged wild-type (WT) APE1 (human) (UniProt P27695). In words: co-IP; IP with anti-FLAG M2 antibody-conjugated agarose beads from extracts of HCT116 WT cells transfected with FLAG-tagged APE1 constructs; Western for p53 and FLAG; control or etoposide-treated cells (10 µM, 5 hours).
In assay [3] the target is FLAG-tagged N-terminal 33 amino acid deleted (NΔ33) mutant APE1 (human) (UniProt P27695). The description is as above.

For ectopic p53 (from UniProt P04637 1-393), the binding entry in assay [1] is “binds”. With p53 (from UniProt P04637 1-393), the binding entry in assay [2] and in assay [3] was “binds” in each case.

B1: AP4 (protein, UniProt Q01664 1-338)
chain: MEYFMVPTQKVPSLQHFRKTEKEVIGGLCSLANIPLTPETQRDQERRIRREIANSNERRRMQSINAGFQSLKTLIPHTDGEKLSKAAILQQTAEYIFSLEQEKTRLLQQNTQLKRFIQELSGSSPKRRRAEDKDEGIGSPDIWEDEKAEDLRREMIELRQQLDKERSVRMMLEEQVRSLEAHMYPEKLKVIAQQVQLQQQQEQVRLLHQEKLEREQQQLRTQLLPPPAPTHHPTVIVPAPPPPPSHHINVVTMGPSSVINSVSTSRQNLDTIVQAIQHIEGTQEKQELEEEQRRAVIVKPVRSCPEAPTSDTASDSEASDSDAMDQSREEPSGDGELP
For B1, the binding result in assay [1] is given as “binds”.
